The AC50 is the midpoint of the concentration-response curve, whichever way the signal moves.

This experiment is described as follows: qHTS Assay to Find Inhibitors of Chronic Active B-Cell Receptor Signaling. The following applies: ABC-DLBCL IkBa-CBG/CBR reporter, luminescence ratio (green luciferase fused to IkBa over red control in TMD8 lymphoma cells), 4 h. The essentials:
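Doxycycline induced both beetle luciferases in TMD8 lymphoma cells; IKK-driven degradation limits the IkappaBalpha-fused green signal, while red luminescence normalises for cell number and nonspecific effects. Compounds tested up to 46 uM, 4 hrs.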

Where [1] appears, read: measured here: CBR red luminescence, cell number.
The mark [2] stands for this setting: measured here: IkBa-CBG green luminescence.

The list shows a part of the results. The main result of the screen is listed elsewhere. These columns were measured beside it and carry no call. The list favours compounds with an active or inconclusive main result. Words in brackets tell the shape of the fitted curve; partial curves, single points and poor fits give uncertain potencies.

Take `Cc1cc(C)c(C)c(S(=O)(=O)N2CCN(C(=O)c3cc(=O)[nH]c4ccccc34)CC2)c1C`: the AC50 is 7.08 µM [rising, partial curve, poor fit] under setting [1] and 14.1 µM [falling, partial curve, poor fit] under setting [2]. Turning to `O=C(Nc1nc(-c2ccco2)c(-c2ccco2)s1)C1CC(=O)N(c2ccc3c(c2)OCCO3)C1` (centres undefined), under setting [1], the AC50 was 13 µM [falling, partial curve, poor fit]. `N#Cc1ccc(/C=C(\C(=O)C(=O)O)c2ccc3ccccc3n2)cc1`: under setting [1], the AC50 was 2.82 µM [rising, full curve, poor fit]. As for `CC(=O)c1c[nH]c2ccc(C)cc2c1=O`, under setting [1], the AC50 is 9.2 µM [falling, partial curve, poor fit].

Take `O=C(NCc1cccc(Cl)c1)c1cc(=O)[nH]c2ccccc12`: the AC50 under setting [1] is 3.98 µM [rising, full curve, poor fit]. Still for that read-out and setting: the result for `CCN1C(=O)/C(=C/C=C2/CCCN2C)OC1=S` reads 6.31 µM [rising, partial curve, poor fit]; that for `COc1cccc(N2CCN(CC(=O)NC(C)c3ccccc3)CC2)c1` (centres undefined), 39.8 µM [rising, partial curve, poor fit]. Turning to `O=C(CN(c1ccc2c(c1)OCCO2)S(=O)(=O)c1ccccc1)N1CCN(Cc2ccccc2)CC1`, under setting [1], the AC50 was 22.4 µM [rising, single point].

`C/C(=N\NC(=O)COc1ccc(C)cc1[N+](=O)[O-])c1cccs1`: under setting [1], the AC50 is 0.251 µM [rising, full curve, poor fit]. Regarding `COc1c(C(=O)Nc2nnc(C3CC3)s2)csc1Cl`, the AC50 under setting [1] is 0.562 µM [rising, full curve, poor fit]. In the case of `CCc1cccc2c(C(=O)CN3C(=O)NC(C)(c4cccc5ccccc45)C3=O)c[nH]c12` (centres undefined), the AC50 under setting [1] is 7.08 µM [falling, partial curve].

For `CC(=O)Nc1ccc(C(=O)OC2CCCCC2=O)cc1` (centres undefined), the AC50 under setting [1] is 8.2 µM [rising, partial curve, poor fit].

As for `Cc1c(C)c2ccc(OC3CCCCC3=O)cc2oc1=O` (centres undefined), the AC50 under setting [1] was 5.17 µM [rising, full curve, poor fit]. Turning to `COc1cc(C(=O)NNC(=S)NC(=O)c2ccc(F)cc2)cc(OC)c1OC`, the AC50 under setting [1] was 8.91 µM [rising, partial curve, poor fit]. Consider `Cc1ccc(C(=O)/C=C/Nc2cccc(O)c2)cc1`, for which, under setting [1], the AC50 is 20.6 µM [falling, partial curve]. Regarding `Cc1ccc(S(=O)(=O)c2nc(C)c3c(n2)CCC3)cc1`, under setting [1], the AC50 is 18.4 µM [rising, single point]. As for `CC(C)OP(=O)(c1ccc(N(C)C)cc1)C(O)c1ccc(Br)cc1` (centres undefined), the AC50 under setting [1] was 5.62 µM [rising, partial curve, poor fit]. Consider `C[C@H](NC(=O)c1[nH]cnc1C(=O)Nc1ccccc1)c1ccccc1`, for which the AC50 under setting [2] was 20.6 µM [rising, partial curve, poor fit]. For `C=CC[C@@H](Cc1ccc(F)cc1)C(=O)OC[C@H]1CCCN1C(=O)[C@@H](CC=C)CC(=O)N(CCO)Cc1ccccc1`, the half-maximal activity concentration (AC50) under setting [1] is 16.4 µM [falling, partial curve]. The same measure, in the same setting: as for `Cc1cc(C(F)(F)F)n2nc(-c3cnn(C)c3C(F)(F)F)c(Cl)c2n1`, the figure is 20 µM [rising, partial curve, poor fit]. Consider `Cc1[nH]c2ccccc2c1C(c1ccncc1)N1CCN(c2ccccc2F)CC1` (centres undefined), for which the AC50 under setting [1] was 20.6 µM [falling, single point]. For `O=C(Nc1ccc2nc(N3CCOCC3)sc2c1)c1ccccc1`, under setting [1], the AC50 was 16.4 µM [falling, single point]. With `NC(=O)c1cc2ccccc2o/c1=N\NC(=O)c1ccc(F)cc1`, the half-maximal activity concentration (AC50) under setting [1] is 0.794 µM [rising, full curve, poor fit].

As for `COC(=O)CNC(=O)CCC(=O)N1CCN(C(c2ccccc2)c2ccccc2)CC1`, under setting [1], the AC50 was 3.98 µM [rising, single point]. For `COc1ccc(CCNc2ccncn2)cc1OC`, under setting [1], the AC50 is 16.4 µM [rising, single point]. On to `C[C@H](CO)N1C[C@H](C)[C@@H](CN(C)Cc2ccc(Cl)c(Cl)c2)Oc2c(NC(=O)Cc3ccccc3)cccc2C1=O`, for which, under setting [1], the AC50 is 20.6 µM [falling, partial curve]. Consider `O=C(CN1CCN(S(=O)(=O)c2ccc(Cl)c(Cl)c2)CC1)N1CCCC1`, for which the AC50 under setting [2] is 32.6 µM [falling, partial curve, poor fit]. In the case of `O=C(Nc1cc(Cl)ccc1N1CCOCC1)c1ccc(Br)o1`, under setting [1], the AC50 is 0.282 µM [rising, full curve, poor fit].

For `Oc1ccc(Cl)cc1CNCc1ccc(F)c(F)c1`, the AC50 under setting [1] is 6.51 µM [rising, partial curve, poor fit]. With `O=C(N/N=C/c1ccco1)c1cc(-c2ccc3ccccc3c2)n[nH]1`, the AC50 was 32.6 µM [falling, single point] under setting [1] and 7.31 µM [rising, partial curve, poor fit] under setting [2].

Regarding `O=C(NCc1cccnc1)c1c[nH]c2cc3c(cc2c1=O)OCCO3`, the AC50 under setting [1] was 10 µM [falling, partial curve, poor fit]. As for `O=C(CSc1nc2ccccc2c(=O)[nH]1)Nc1ccc(C(=O)O)cc1`, the AC50 under setting [1] was 1.58 µM [falling, full curve].

`COc1cccc(NC(=O)CSC2=Nc3ccccc3C3=NC(CC(=O)NCc4ccccc4OC)C(=O)N23)c1` (centres undefined): the AC50 under setting [1] was 12.6 µM [falling, single point]. Still for that read-out and setting: as for `O=c1oc2ccc(Cl)cc2cc1-c1cn2c(n1)sc1ccccc12`, the figure is 35.5 µM [falling, single point]. `CCOC(=O)N1CCN(S(=O)(=O)N2CCCC(C(=O)NCc3ccc(OC)cc3OC)C2)CC1` (centres undefined): under setting [1], the AC50 is 6.31 µM [rising, partial curve]. As to `CC(C)(C)C1C/C(=C/c2ccco2)C(=O)/C(=C/c2ccco2)C1` (centres undefined), the AC50 under setting [1] was 6.51 µM [falling, partial curve]. In the case of `CN(C)C(=S)Nc1nc2ccccc2s1`, the AC50 under setting [1] is 2.24 µM [falling, full curve, poor fit].

`O=C(Cn1nc(Cc2cccnc2)c2ccccc2c1=O)NCC1COc2ccccc2O1` (centres undefined): the AC50 under setting [1] is 0.092 µM [falling, full curve, poor fit]. On to `O=C(/C=C\Nc1ccc(Br)cc1)c1cccnc1`, for which the AC50 under setting [1] was 16.4 µM [falling, single point].

`CCC(C)N(C(=O)CN1C(=O)NC2(CCc3ccccc32)C1=O)C1CCS(=O)(=O)C1` (centres undefined): the AC50 reads like this: under setting [1], 6.51 µM [falling, single point]; under setting [2], 4.11 µM [rising, partial curve, poor fit]. Turning to `CC/C(=C/c1ccccc1)c1cccc2[nH]c3c(OC)cccc3c12`, under setting [1], the half-maximal activity concentration (AC50) is 35.5 µM [rising, single point]. The same measure, in the same setting: the result for `CCc1cccc2c(C(=O)CN3C(=O)NC4(CCc5ccccc54)C3=O)c[nH]c12` (centres undefined) reads 0.164 µM [falling, full curve, poor fit]; that for `COc1ccc(NC(=O)C2CCC(CNc3c(N4CCOCC4)c(=O)c3=O)CC2)cc1Cl` (centres undefined), 8.91 µM [rising, partial curve]; that for `c1ccc(CN2CCC3(CC2)Nc2ccccc2CO3)cc1`, 14.6 µM [falling, single point]. For the compound `O=C(NCC1CCCCN1)c1cc(OCC(F)(F)F)ccc1OCC(F)(F)F` (centres undefined), the AC50 under setting [1] was 20.6 µM [rising, partial curve, poor fit]. `Cc1cccc([C@@H]2[C@@H]3C(=O)N(Cc4ccccc4)C(=O)[C@@H]3[C@]3(C)C(=O)N(c4cccc(Cl)c4)C(=O)N23)c1`: the AC50 under setting [1] was 10 µM [falling, partial curve, poor fit]. For the compound `CNc1ccccc1C(=O)OC(C)C(=O)Nc1ccc(S(=O)(=O)N2CCCC2)cc1` (centres undefined), the AC50 under setting [1] is 35.5 µM [falling, single point]. Take `CC(C)c1c(O)nc(SCCN(C)C)[nH]c1=O`: the AC50 under setting [1] is 35.5 µM [falling, single point]. Consider `O=C(c1cc(-c2cccc(O)c2)on1)N1CCCCCC1`, for which, under setting [1], the AC50 was 0.708 µM [rising, full curve, poor fit]. Consider `Nc1c(S(=O)(=O)c2cc(Cl)ccc2Cl)c2nc3ccccc3nc2n1CCN1CCOCC1`, for which the AC50 under setting [1] was 4.11 µM [falling, partial curve, poor fit]. Still for that read-out and setting: the result for `O=C(Nc1nc2ccccc2s1)c1ccc(Cl)s1` reads 2.31 µM [falling, full curve]. For the compound `COc1ccc2nc(NC(=O)C3COc4ccccc4O3)sc2c1` (centres undefined), under setting [1], the AC50 is 35.5 µM [falling, partial curve, poor fit]. The same measure, in the same setting: the result for `Cc1cc(=O)oc2cc(Oc3ncccn3)ccc12` reads 6.51 µM [rising, single point]; that for `CC(C)Cn1c(C(C)C)nc([N+](=O)[O-])c1S(=O)(=O)c1ccc(F)cc1`, 1.41 µM [falling, full curve, poor fit]; that for `Cc1cc(NC(=O)COC(=O)c2c(C)nn(-c3ccccc3)c2C)no1`, 3.98 µM [rising, single point]. On to `Cn1ccnc1SCC(=O)Nc1cccc2ccccc12`, for which the AC50 under setting [1] was 5.62 µM [rising, single point]. On the same count and under the same terms, as for `CCN1C(=O)[C@@H]2Cc3c([nH]c4ccccc34)C(c3ccc(OC)cc3)N2C1=S` (some centres undefined), the figure is 35.5 µM [falling, single point]; as for `O=C(CSc1ncn(-c2ccccc2)n1)c1cccs1`, 8.91 µM [falling, partial curve]; as for `Fc1cccc(/C=N/NC(=S)Nc2ccccc2Cl)c1`, 3.66 µM [rising, full curve, poor fit].

Regarding `O=[N+]([O-])c1cc(S(=O)(=O)N2CCCC2)ccc1SCCO`, the AC50 under setting [1] is 14.1 µM [rising, single point]. In the case of `Cc1ccc(SCC(=O)c2c(C)nc3ccccn23)cc1`, the AC50 under setting [1] was 35.5 µM [falling, single point].

Values taken from PubChem BioAssay AID493014 (National Center for Advancing Translational Sciences (NCATS), 2011).
